# Source: article PMC2386467
# For at least one entry, the source does not settle the construct or the ends of the probe. At least one verdict rests on a figure or table, not on a statement of the authors.
# Test system: Rap2.4a (Arabidopsis thaliana)
# Assay: EMSA
# Details: EMSA: 2.5 ug protein, 20 ng DNA, 0.5x TBE, 20 min room temperature, 6-7% native PAGE, anti-His blot; recombinant protein; protein details: His; letters put together from the description
sequence,measurement,value
CTCCGGTCACGCGATTCAAC (double strand) [wild-type CE3-like element (20 bp)],binding result,binds
